Data taken from patent publication EP4574844A1.

B1: PRO3744 (scFv)
scFv: DVQMTQSPSSLSASVGDRVTITCQASQSIGSNLAWYQQKPGKPPKLLIYKGGTLESGVPSRFSGSGSGTDFTLTISSLQPEDFATYYCQSTAGSSRSGNYGYVFGCGTKVTVLGGGGGSGGGGSGGGGSGGGGSQQLVESGGGLVQPGGSLRLSCAASGFSFTNNYYMCWVRQAPGKCLEWIACMLVGAWGNTYYASWANGRFTISKDNSKNTVYLQMNSLRAEDSAVYFCARARDYTWTLGGDPETSGFNLWGQGTLVKVSS
B2: PRO3696 (scFv)
scFv: DVQMTQSPSSLSASVGDRVTITCQASQSIGLNLAWYQQKPGKPPKLLIYAGGYLASGVSSRFSGSGSGTDFTLTISSLQPEDFATYYCQSTYDGSSFVFAFGTGTKVTVLGGGGGSGGGGSGGGGSGGGGSQEQLVESGGGLVQPGGSLRLSCAASGFSFSSSSYMCWVRQAPGKGLEWIACMVTGSSDDTDYASWAKGRFTISKDNSKNTVYLQMNSLRAEDSAVYFCARAGSAPLWGQGTLVKVSS
B3: PRO3697 (scFv)
scFv: AFQLTQSPSSLSASVGDRVTITCQASQSIGTYLAWYQQKPGKPPKLLIYRGGTLASGVPSRFSGSGSGTDFTLTISSLQPEDFATYYCQSYDSSNTFGTGTKVTVLGGGGGSGGGGSGGGGSGGGGSQEQLVESGGGLVQPGRSLRLSCAASGFDLSADYMCWVRQAPGKGLEWIACIYIDDDNTYYATWAKGRFTISKDNSKNTVYLQMNSLRAEDSAVYFCARGYGVYTGAITYFTLWGQGTLVKVSS

Molecular target: recombinant cynomolgus LILRB2 (cynomolgus monkey)
Assay: SPR, LILRB2 immobilised, scFv as analyte

binding, no binding (tested: 10 nM):
B1, B2, B3

These are yes or no findings as the source states them, for the method shown.
